Reference: the supplement of paper PMC8728848
This is one part of the list.

Tests used:
Assay in all cases: glycan array binding signal (z-score within array); higher = stronger binding
Settings in all cases: glycan notation: IUPAC condensed, linker removed; mutation: R276L
[1] = target: Neu5Ac(a2-6)Gal(b1-4)GlcNAc(b1-3)Gal(b1-4)GlcNAc(b1-3)Gal(b1-4)GlcNAc
Method in brief: (§1)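 Columns mapping to the same glycan were averaged after glycan names were converted to IUPAC-condensed notation. The data come from 3228 arrays in the Consortium for Functional Glycomics database, limited to those with an available protein sequence. Binding is reported as a within-array Z-score averaged across arrays of one protein sequence and across linkers.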

[2] = target: Neu5Ac(a2-6)Gal(b1-4)GlcNAc(b1-3)Gal(b1-4)GlcNAc(b1-3)Gal(b1-4)GlcNAc(b1-2)Man(a1-3)[Neu5Ac(a2-6)Gal(b1-4)GlcNAc(b1-3)Gal(b1-4)GlcNAc(b1-3)Gal(b1-4)GlcNAc(b1-2)Man(a1-6)]GalNAc
Method in brief: as §1

[3] = target: Neu5Ac(a2-6)Gal(b1-4)GlcNAc(b1-3)Gal(b1-4)GlcNAc(b1-3)GalNAc
Method in brief: as §1

[4] = target: Neu5Ac(a2-6)Gal(b1-4)GlcNAc(b1-3)Gal(b1-4)GlcNAc(b1-3)[Neu5Ac(a2-6)Gal(b1-4)GlcNAc(b1-3)Gal(b1-4)GlcNAc(b1-6)]GalNAc
Method in brief: as §1

[5] = target: Neu5Ac(a2-6)Gal(b1-4)GlcNAc(b1-3)Gal(b1-4)GlcNAc(b1-6)[Gal(b1-3)]GalNAc
Method in brief: as §1

[6] = target: Neu5Ac(a2-6)Gal(b1-4)GlcNAc(b1-3)Gal(b1-4)[Fuc(a1-3)]GlcNAc(b1-3)Gal(b1-4)[Fuc(a1-3)]GlcNAc
Method in brief: as §1

[7] = target: Neu5Ac(a2-6)Gal(b1-4)GlcNAc(b1-3)GalNAc
Method in brief: as §1

[8] = target: Neu5Ac(a2-6)Gal(b1-4)GlcNAc(b1-3)[Neu5Ac(a2-6)Gal(b1-4)GlcNAc(b1-6)]GalNAc
Method in brief: as §1

[9] = target: Neu5Ac(a2-6)Gal(b1-4)GlcNAc(b1-6)GalNAc
Method in brief: as §1

[10] = target: Neu5Ac(a2-6)Gal(b1-4)GlcNAc(b1-6)[Gal(b1-3)GlcNAc(b1-3)]Gal(b1-4)Glc
Method in brief: as §1

[11] = target: Neu5Ac(a2-6)Gal(b1-4)GlcNAc(b1-6)[Gal(b1-3)]GalNAc
Method in brief: as §1

[12] = target: Neu5Ac(a2-6)Gal(b1-4)GlcNAc6S
Method in brief: as §1

[13] = target: Neu5Ac(a2-6)GalNAc
Method in brief: as §1

[14] = target: Neu5Ac(a2-6)GalNAc(b1-4)GlcNAc
Method in brief: as §1

[15] = target: Neu5Ac(a2-6)GalNAc(b1-4)GlcNAc6S
Method in brief: as §1

[16] = target: Neu5Ac(a2-6)GlcNAc(b1-4)GlcNAc
Method in brief: as §1

[17] = target: Neu5Ac(a2-6)GlcNAc(b1-4)GlcNAc(b1-4)GlcNAc
Method in brief: as §1

[18] = target: Neu5Ac(a2-8)Neu5Ac
Method in brief: as §1

[19] = target: Neu5Ac(a2-8)Neu5Ac(a2-3)Gal(b1-3)GalNAc(b1-4)[Neu5Ac(a2-3)]Gal(b1-4)Glc
Method in brief: as §1

[20] = target: Neu5Ac(a2-8)Neu5Ac(a2-3)Gal(b1-3)GalNAc(b1-4)[Neu5Ac(a2-8)Neu5Ac(a2-3)]Gal(b1-4)Glc
Method in brief: as §1

[21] = target: Neu5Ac(a2-8)Neu5Ac(a2-3)Gal(b1-4)Glc
Method in brief: as §1

[22] = target: Neu5Ac(a2-8)Neu5Ac(a2-3)Gal(b1-4)GlcNAc
Method in brief: as §1

[23] = target: Neu5Ac(a2-8)Neu5Ac(a2-3)[Gal(b1-3)GalNAc(b1-4)]Gal(b1-4)Glc
Method in brief: as §1

[24] = target: Neu5Ac(a2-8)Neu5Ac(a2-3)[GalNAc(b1-4)]Gal(b1-4)Glc
Method in brief: as §1

[25] = target: Neu5Ac(a2-8)Neu5Ac(a2-8)Neu5Ac
Method in brief: as §1

[26] = target: Neu5Ac(a2-8)Neu5Ac(a2-8)Neu5Ac(a2-3)Gal(b1-4)Glc
Method in brief: as §1

[27] = target: Neu5Ac(a2-8)Neu5Ac(a2-8)Neu5Ac(a2-3)[Gal(b1-3)GalNAc(b1-4)]Gal(b1-4)Glc
Method in brief: as §1

[28] = target: Neu5Ac(a2-8)Neu5Ac(a2-8)Neu5Ac(a2-3)[GalNAc(b1-4)]Gal(b1-4)Glc
Method in brief: as §1

[29] = target: Neu5Ac(a2-8)Neu5Ac(a2-8)Neu5Ac(a2-8)Neu5Ac(a2-3)[GalNAc(b1-4)]Gal(b1-4)Glc
Method in brief: as §1

[30] = target: Neu5Ac(a2-8)Neu5Gc(a2-3)Gal(b1-4)GlcNAc
Method in brief: as §1

[31] = target: Neu5Ac(b2-6)Gal(b1-4)GlcNAc
Method in brief: as §1

[32] = target: Neu5Ac(b2-6)GalNAc
Method in brief: as §1

[33] = target: Neu5Ac9Ac(a2-3)Gal(b1-3)GlcNAc
Method in brief: as §1

[34] = target: Neu5Ac9Ac(a2-3)Gal(b1-4)GlcNAc
Method in brief: as §1

[35] = target: Neu5Ac9Ac(a2-6)Gal(b1-4)GlcNAc
Method in brief: as §1

[36] = target: Neu5Gc(a2-3)Gal(b1-3)GlcNAc
Method in brief: as §1

[37] = target: Neu5Gc(a2-3)Gal(b1-3)[Fuc(a1-4)]GlcNAc
Method in brief: as §1

[38] = target: Neu5Gc(a2-3)Gal(b1-4)Glc
Method in brief: as §1

[39] = target: Neu5Gc(a2-3)Gal(b1-4)GlcNAc
Method in brief: as §1

[40] = target: Neu5Gc(a2-3)Gal(b1-4)GlcNAc(b1-3)Gal(b1-4)GlcNAc(b1-2)Man(a1-3)[Neu5Gc(a2-3)Gal(b1-4)GlcNAc(b1-3)Gal(b1-4)GlcNAc(b1-2)Man(a1-6)]Man(b1-4)GlcNAc(b1-4)GlcNAc
Method in brief: as §1

[41] = target: Neu5Gc(a2-3)Gal(b1-4)[Fuc(a1-3)]GlcNAc
Method in brief: as §1

[42] = target: Neu5Gc(a2-6)Gal(b1-4)GlcNAc
Method in brief: as §1

[43] = target: Neu5Gc(a2-6)GalNAc
Method in brief: as §1

[44] = target: Neu5Gc(a2-8)Neu5Ac(a2-3)Gal(b1-4)GlcNAc
Method in brief: as §1

[45] = target: Neu5Gc(a2-8)Neu5Gc(a2-3)Gal(b1-4)GlcNAc
Method in brief: as §1

B1: SUN4P (Saccharomyces cerevisiae), P53616 (protein)
chain: MGSSHHHHHHSSGLVPRGSHNGSIYGDLADFSGPYEKFEDGTIPCGQFPSGQGVIPISWLDEGGWSGVENTDTSTGGSCKEGSYCSYACQPGMSKTQWPSDQPSDGRSIGGLLCKDGYLYRSNTDTDYLCEWGVDAAYVVSELSNDVAICLTDYPGTENMVIPTYVQAGDSLPLTVVDQDTYYTWQGLKTSAQYYVNNAGISVEDACVWGSSSSGVGNWAPLNFGAGSSDGVAYLSLIPNPNNGNALNFNVKIVAADDSSTVNGECIYENGSFSGGSDGCTVSVTAGKAKFVLYN
Question: How did the “glycan array binding signal (z-score)” value [1] turn out when B1 was run?
Answer: 0.003

Question: And the “glycan array binding signal (z-score)” value [2]?
Answer: 0.367

Question: What about the “glycan array binding signal (z-score)” value [3] of the same binder?
Answer: -0.989

Question: And the “glycan array binding signal (z-score)” value [4]?
Answer: 0.361

Question: What about the “glycan array binding signal (z-score)” value [5] of the same binder?
Answer: 0.468

Question: And the “glycan array binding signal (z-score)” value [6]?
Answer: 0.494

Question: What about the “glycan array binding signal (z-score)” value [7] of the same binder?
Answer: -0.794

Question: And the “glycan array binding signal (z-score)” value [8]?
Answer: 0.832

Question: And the “glycan array binding signal (z-score)” value [9]?
Answer: -0.352

Question: What about the “glycan array binding signal (z-score)” value [10] of the same binder?
Answer: -0.554

Question: What about the “glycan array binding signal (z-score)” value [11] of the same binder?
Answer: 0.503

Question: And the “glycan array binding signal (z-score)” value [12]?
Answer: 0.449

Question: What about the “glycan array binding signal (z-score)” value [13] of the same binder?
Answer: -0.566

Question: What about the “glycan array binding signal (z-score)” value [14] of the same binder?
Answer: 0.461

Question: And the “glycan array binding signal (z-score)” value [15]?
Answer: -0.756

Question: And the “glycan array binding signal (z-score)” value [16]?
Answer: 2.98

Question: What about the “glycan array binding signal (z-score)” value [17] of the same binder?
Answer: 0.508

Question: What about the “glycan array binding signal (z-score)” value [18] of the same binder?
Answer: 0.741

Question: And the “glycan array binding signal (z-score)” value [19]?
Answer: -1.01

Question: What about the “glycan array binding signal (z-score)” value [20] of the same binder?
Answer: 0.907

Question: What about the “glycan array binding signal (z-score)” value [21] of the same binder?
Answer: -0.866

Question: And the “glycan array binding signal (z-score)” value [22]?
Answer: -0.812

Question: And the “glycan array binding signal (z-score)” value [23]?
Answer: 1.75

Question: And the “glycan array binding signal (z-score)” value [24]?
Answer: -0.678

Question: What about the “glycan array binding signal (z-score)” value [25] of the same binder?
Answer: 0.797

Question: What about the “glycan array binding signal (z-score)” value [26] of the same binder?
Answer: -0.601

Question: And the “glycan array binding signal (z-score)” value [27]?
Answer: -0.916

Question: What about the “glycan array binding signal (z-score)” value [28] of the same binder?
Answer: -1

Question: And the “glycan array binding signal (z-score)” value [29]?
Answer: 1.61

Question: What about the “glycan array binding signal (z-score)” value [30] of the same binder?
Answer: -0.234

Question: And the “glycan array binding signal (z-score)” value [31]?
Answer: 0.153

Question: And the “glycan array binding signal (z-score)” value [32]?
Answer: -0.858

Question: And the “glycan array binding signal (z-score)” value [33]?
Answer: -0.326

Question: What about the “glycan array binding signal (z-score)” value [34] of the same binder?
Answer: 0.625

Question: What about the “glycan array binding signal (z-score)” value [35] of the same binder?
Answer: -1.81

Question: And the “glycan array binding signal (z-score)” value [36]?
Answer: 0.424

Question: And the “glycan array binding signal (z-score)” value [37]?
Answer: 0.694

Question: And the “glycan array binding signal (z-score)” value [38]?
Answer: 0.359

Question: And the “glycan array binding signal (z-score)” value [39]?
Answer: -0.339

Question: And the “glycan array binding signal (z-score)” value [40]?
Answer: -0.663

Question: What about the “glycan array binding signal (z-score)” value [41] of the same binder?
Answer: 0.059

Question: And the “glycan array binding signal (z-score)” value [42]?
Answer: -0.649

Question: What about the “glycan array binding signal (z-score)” value [43] of the same binder?
Answer: -0.067

Question: What about the “glycan array binding signal (z-score)” value [44] of the same binder?
Answer: 0.464

Question: What about the “glycan array binding signal (z-score)” value [45] of the same binder?
Answer: -0.206
